Patent publication US10961297 (SANFORD BURNHAM PREBYS MEDICAL DISCOVERY INSTITUTE, dated 2021)
Results are given in words; binding and its absence hold for the method and conditions named. Some results given as binding are weak or reduced against the parent protein; the word gives no strength.

Protein sequences, listed by entry. Tags and fused reporters are not part of them. Residues count along the entry.
UniProt Q9QYH9: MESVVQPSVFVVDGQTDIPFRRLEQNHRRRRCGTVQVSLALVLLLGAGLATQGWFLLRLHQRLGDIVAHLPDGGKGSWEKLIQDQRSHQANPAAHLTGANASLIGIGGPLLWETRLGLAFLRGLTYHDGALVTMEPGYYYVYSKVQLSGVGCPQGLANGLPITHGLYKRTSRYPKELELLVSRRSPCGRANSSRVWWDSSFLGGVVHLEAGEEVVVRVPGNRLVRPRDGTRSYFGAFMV
UniProt Q7TSA3, residues 30-306: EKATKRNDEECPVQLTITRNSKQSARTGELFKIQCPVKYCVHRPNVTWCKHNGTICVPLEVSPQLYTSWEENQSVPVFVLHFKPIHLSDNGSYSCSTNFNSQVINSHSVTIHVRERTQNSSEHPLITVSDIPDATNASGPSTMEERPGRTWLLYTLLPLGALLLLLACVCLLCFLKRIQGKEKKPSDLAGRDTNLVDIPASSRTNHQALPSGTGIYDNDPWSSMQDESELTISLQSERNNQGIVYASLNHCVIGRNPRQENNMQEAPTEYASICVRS
UniProt Q80WM9, residues 39-210: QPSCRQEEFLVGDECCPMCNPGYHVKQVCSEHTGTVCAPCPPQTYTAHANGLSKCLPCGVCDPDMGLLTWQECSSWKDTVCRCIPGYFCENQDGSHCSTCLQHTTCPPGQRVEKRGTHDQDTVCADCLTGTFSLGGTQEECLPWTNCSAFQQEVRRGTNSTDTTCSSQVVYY

Key:
[1] = target: mouse LIGHT on 293T cells (mouse) (UniProt Q9QYH9); test: flow cytometry, mouse HVEM-Fc titrated on 293T cells transfected with mouse LIGHT, anti-human Fc [panel C]
[2] = target: mouse BTLA on 293T cells (mouse) (UniProt Q7TSA3); test: flow cytometry, mouse HVEM-Fc titrated on 293T cells transfected with mouse BTLA, anti-human Fc [panel B]

WT (from UniProt Q80WM9) (Fc fusion)
binding [1]: binds | binding [2]: binds
